# The list shows a part of the results. The main result of the screen is listed elsewhere. These columns were measured beside it and carry no call. The list favours compounds with an active or inconclusive main result. Potencies come from curve fits of mixed quality, noted in brackets.
# Experiment: IkB Signaling
# Conditions: ABC-DLBCL IkBa-CBG/CBR dual luciferase ratio (green luciferase fused to IkBa over red control in OCI-Ly3 lymphoma cells), 4 h
# From the text: NIH Molecular Libraries Screening Centers Network [MLSCN]
# NIH Chemical Genomics Center [NCGC]
# Nuclear factor kappa-B (NF-kappa-B) plays an important role in normal B cell development and survival. Diffuse large B cell lymphoma (DLBCL) is the most commonly observed type of non-Hodgkin's lymphoma. Gene expression analysis has identified an activated B cell-like subtype of DLBCL (ABC-DLBCL) which expresses known NF-kappa-B target genes. […] However, targets upstream of IKK have been largely unexplored and so nodes upstream of IKK in the NF-kappa-B pathway remain untested due to the lack of chemical probes.
# A cell-sensor assay for I-kappa-B-alpha stabilization was developed with NIH investigator Dr. R. Eric Davis in Dr. Louis M. Staudt's laboratory. The assay uses green (CBG68) and red (CBR) emitting beetle luciferases [Chroma-Glo(TM) developed by Promega Corp.] where the green luciferase is fused to I-kappa-B-alpha and the red luciferase is present in its native state. Both luciferase genes are stably present in the OCI-Ly3 human ABC DLBCL cell line, but their expression is under the control of tetracycline-inducible promoters. Following the addition of doxycycline to induce expression of the luciferases, the green luminescence in control cultures rises only slowly because the CBG fusion partner I-kappa-B-alpha is targeted by IKK activity for rapid degradation. In contrast, green luminescence rises rapidly in the presence of proteasome inhibitors or IKK inhibitors. The rise in red luminescence of CBR is not affected by proteasome or IKK inhibitors, and serves as normalization for cell number and nonspecific effects. Compounds were screened as a concentration-titration series that ranged from 57 uM to 0.7 nM.
# NCGC Assay Protocol Summary:
# Cells were seeded in 1536-well plates at 5000 cells/3ul in IMDM medium containing 0.5% FBS, w/o phenol red, L-glutamine, 25 mM HEPES, 3 mg/ml sodium bicarbonate. After centrifugation for 1 min. at 1000 rpm, 23 nl of compounds or DMSO were delivered to each well using a pin tool. Then 1ul 80ng/ml doxycycline was dispensed into white solid 1536-well plates and the plates were incubated at 37C/5% C02 in a cell incubator for 4 hrs. Then 4 ul Chroma-Glo luminescent substrate mix (Promega) was added to each well. The plate was incubated at R.T. for 10-15 min. The plates were measured on a ViewLux plate reader for green luminescence (540/20 nm filter) and red luminescence (618/8 nm filter). The green and red luminescent signals were corrected for red and green luminescence filter overlap using previously determined filter calibration constants (determined using the procedure outlined in the Promega Technical Manual). The %Activity was determined from the ratio of corrected green/red luminescent values. Green luminescent and ratio %Activity was determined by normalizing to the difference in signal between basal cells (0% Activity) and cells incubated with 10 uM of the proteasome inhibitor MG-132 (100% Activity). Red luminescent %Activity was normalized to the difference between red luminesence in basal cells (0%Activity) and zero luminescence (-100% Activity).
# Concentration-response curves were fitted to the signals arising from the green luminescence (I-kappa-B-alpha-luciferase fusion; IkB-luc) and the red luminescence (unfused luciferase; luc) as well as the calculated ratio. The concentration-effect curves were then classified based on curve quality (r2), response magnitude and degree of measured activity. Compounds were then categorized based on their concentration-response curves for all three datasets (Ikb-luc, luc and ratio).
# Keywords: IKK, I-kappa-B, IkB, IkBa, cytotoxicity, luminescence, MLSMR, MLSCN, NIH Roadmap, qHTS, NCGC
# [1] = measured here: control luc red channel unless noted
smiles,measurement,setting,value
COc1ccc(OC)c(NC(=O)Cn2cc(C(=O)c3ccco3)c3ccccc32)c1,AC50,[1],"12.6 µM [falling, partial curve]"
Cc1ccc(-c2nnc(Nc3ccc(Br)cc3)c3ccccc23)cc1S(=O)(=O)N1CCCCC1,AC50,[1],"0.631 µM [falling, full curve]"
CCC(=O)NC1CC(=O)N(c2ccc3c(c2)OCCO3)C1 (stereo not given),AC50,[1],"7.94 µM [rising, single point]"
COc1ccccc1NC(=O)Cn1c(=O)n(Cc2ccco2)c(=O)c2oc3ccccc3c21,AC50,[1],"2.51 µM [falling, full curve, poor fit]"
O=C(CN1C(=O)C(c2ccc(F)cc2)=NC12CCCCCC2)Nc1ccc(F)c(Cl)c1,AC50,[1],"15.8 µM [falling, partial curve]"
COc1cc(-c2cc(OC)c3c(C)oc(C)c3c(=O)c2)ccc1OC(=O)c1ccccc1C,AC50,[1],"10 µM [falling, partial curve]"
Cc1cc(C)c2c(-n3cccc3)c(C(=O)NCCc3ccc(Cl)cc3)sc2n1,AC50,[1],"20 µM [rising, partial curve, poor fit]"
COc1ccc(-c2cc(C(=O)Nc3c(Cl)cccc3Cl)no2)cc1OC,AC50,[1],"25.1 µM [falling, partial curve]"
CCN(CCCNC(=O)c1cc2c(=O)n(CC)c3ccccc3c2s1)c1cccc(C)c1,AC50,[1],"10 µM [falling, partial curve]"
O=C(Nc1ccccn1)c1ccc(NC(=O)c2ccco2)cc1,AC50,[1],"31.6 µM [falling, single point]"
COc1ccc2c(c1)c(=O)c(S(=O)(=O)c1ccc(C)c(C)c1)cn2CC(=O)Nc1ccccc1,AC50,[1],"6.31 µM [falling, partial curve]"
CCc1ccc(N2CCn3c2nc2c3c(=O)n(Cc3ccc(F)cc3)c(=O)n2C)cc1,AC50,[1],"15.8 µM [falling, partial curve]"
COc1ccc(Cl)cc1NC(=O)CN(c1cc(C)cc(C)c1)S(=O)(=O)c1c(C)n[nH]c1C,AC50,[1],"10 µM [falling, partial curve]"
Cc1cccc(NC(=O)Nc2ccc(C#N)cc2)n1,AC50,measured here: IkB-luc green channel,"0.794 µM [falling, full curve, poor fit]"
same,AC50,measured here: control luc red channel,"0.631 µM [falling, full curve, poor fit]"
COc1cc(-c2noc(C3CC(=O)N(c4ccc5c(c4)OCCO5)C3)n2)cc(OC)c1OC (stereo not given),AC50,[1],"15.8 µM [falling, partial curve]"
Cc1ccc(CNc2ccc(-c3nc(-c4ccco4)no3)cc2[N+](=O)[O-])cc1,AC50,[1],"15.8 µM [falling, partial curve]"
CCOc1ccc(-c2nc3c(C#N)c[nH]n3c2NC2CCCC2)cc1,AC50,[1],"31.6 µM [falling, single point]"
COc1ccc(NS(=O)(=O)c2ccc(NC(=O)N3CCCC3)cc2)cc1,AC50,[1],"1.26 µM [rising, full curve]"
Cc1ccc(-c2cn3c(n2)sc2cc(C(=O)NCCCc4ccccc4)ccc23)cc1,AC50,[1],"12.6 µM [falling, partial curve]"
CCc1ccccc1NC(=O)C1CCCN(S(=O)(=O)c2cccc3nsnc23)C1 (stereo not given),AC50,[1],"12.6 µM [falling, partial curve]"
COc1ccc(CCNC(=O)CCc2c(C)nc3c(c(C)nn3-c3ccc(C)cc3)c2C)c(OC)c1,AC50,[1],"5.01 µM [falling, full curve]"
CCOc1ccc(N(CC(=O)Nc2ccccc2C)S(=O)(=O)c2c(C)noc2C)cc1,AC50,[1],"3.16 µM [rising, full curve] [measured here: IkB-luc green channel]"
COc1ccc(Nc2cc(C)nc(-n3nc(C)cc3C)n2)cc1Cl,AC50,[1],"3.98 µM [rising, partial curve]"
CN(CCC#N)c1ncnc2scc(-c3ccccc3)c12,AC50,[1],"12.6 µM [falling, partial curve]"
Cc1cc(C)c(C#N)c(N2CCN(CCOc3ccc(Cl)cc3)CC2)n1,AC50,[1],"12.6 µM [falling, partial curve]"
COc1ccc(OC)c(NS(=O)(=O)c2ccc3c(c2)CCCN3C(=O)C2CCC2)c1,AC50,[1],"31.6 µM [falling, single point]"
O=C(Nc1ccc(F)cc1F)c1cc(CN2CCOCC2)on1,AC50,[1],"12.6 µM [falling, partial curve]"
Cc1ccc(S(=O)(=O)Nc2ccc3c(c2)CCCN3C(=O)c2cccs2)cc1C,AC50,[1],"31.6 µM [falling, partial curve]"
COc1cccc(C2=NOC(C(=O)N3CCc4ccccc4C3)C2)c1 (stereo not given),AC50,[1],"15.8 µM [falling, partial curve]"
O=C(NCC(c1ccc2c(c1)OCO2)N1CCOCC1)C(=O)Nc1ccc(Cl)cc1 (stereo not given),AC50,[1],"1 µM [falling, full curve]"
Oc1cccc(-c2nc(-c3cccs3)c(-c3cccs3)[nH]2)c1,AC50,[1],"15.8 µM [falling, partial curve]"
Cc1ccc(NS(=O)(=O)c2ccc(-c3cc(C)no3)cc2)c(C)c1,AC50,[1],"31.6 µM [falling, partial curve]"
Cn1c(=O)oc2cc(S(=O)(=O)N3CCCC(C(=O)N4CCN(c5ccc(F)cc5)CC4)C3)ccc21 (stereo not given),AC50,[1],"15.8 µM [falling, partial curve]"
Cc1ccccc1OCC(=O)Nc1nnc(S(=O)(=O)N2CCCCCC2)s1,AC50,[1],"20 µM [rising, partial curve]"
CCc1nn2c(=O)cc(COC(=O)c3ccccc3NC(=O)c3ccc(C(C)(C)C)cc3)nc2s1,AC50,[1],"3.98 µM [falling, full curve]"
CC(Oc1ccc(Br)cc1)C(=O)N(Cc1nc(-c2ccccc2)no1)C(C)C (stereo not given),AC50,[1],"25.1 µM [falling, partial curve]"
O=C(NCCCN1CCN(c2ccccc2)CC1)c1ccc2nc(CCc3ccccc3)oc2c1,AC50,[1],"31.6 µM [falling, partial curve]"
Cc1ccc(-n2c(-c3cccc(C)c3)nc3c(cnn3-c3ccccc3)c2=O)cc1,AC50,[1],"31.6 µM [falling, single point]"
CCOC(=O)CSc1ncnc2c1cnn2-c1ccc(C)cc1,AC50,[1],"31.6 µM [falling, partial curve]"

# An excerpt of these results, as tab-separated lines:
smiles	measurement	setting	value
Cc1ccc(-c2nnc(Nc3ccc(Br)cc3)c3ccccc23)cc1S(=O)(=O)N1CCCCC1	AC50	[1]	0.631 µM [falling, full curve]
COc1ccc(-c2cc(C(=O)Nc3c(Cl)cccc3Cl)no2)cc1OC	AC50	[1]	25.1 µM [falling, partial curve]
CCc1ccccc1NC(=O)C1CCCN(S(=O)(=O)c2cccc3nsnc23)C1 (stereo not given)	AC50	[1]	12.6 µM [falling, partial curve]
